Laboratory results reported in PubChem BioAssay AID328 (DTP/NCI, 2004).
The list does not hold the whole screen: it is rich in T/C values a quarter to a half above the control, in often repeated tests (any T/C) and in doses without a T/C. Other doses and runs of a compound stand elsewhere. T/C gives the treated animals as a percentage of the vehicle group. Some entries give survivors of the animals treated and no T/C: the source holds a T/C of zero for them, seemingly a mark for toxic or unscored doses. Some survivor counts are full or nearly so, which does not show that the dose was tolerated: survival well below the control is almost never listed, so the zero probably covers shortened survival too. Survivors were counted at the toxicity check, usually on the fifth day, unless a day is given; later deaths do not show. Schedule codes are those of the source, read here as Q, the interval in days (D) or hours (H), X, the number of doses. Some schedule codes hold Z or #, which are not explained here. Some doses were run more than once; the results are listed from low to high. Some molecules as drawn cover several salts, stereoisomers or complexes of the source; a dose is that of the sample tested. Counts like (3×) count equal records among those shown. Where survival is the endpoint, the PubChem record calls one and a half times the control and up active, and a quarter to a half above the control has no call in these data; cut-offs in other NCI protocols can differ.

Test system: BDF1 mice, P388 leukemia ip, median survival T/C
Experiment: NCI In Vivo Anticancer Drug Screen. Data for tumor model P388 Leukemia (intraperitoneal) in B6D2F1 (BDF1) mice
Conditions: T/C endpoint: median survival time, higher T/C = longer survival
In short: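 Steps: implant the tumour, treat one group with compound and another with vehicle, record survival, then divide treated by control.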

[1] = dose: 200.0 mg/kg/injection, schedule: Q04DX003 (ip), vehicle: Klucel (hydroxypropylcellulose) (HPC)
[2] = dose: 400.0 mg/kg/injection, schedule: Q01DX009 (ip), vehicle: saline with Tween-80

## CCCCC[C@H](O)/C=C/[C@@H]1[C@@H](C/C=C\CCCC(=O)O)[C@@H](O)C[C@H]1O
dose: 2.0 mg/kg/injection, schedule: Q#A X020 (ip), vehicle: saline
  survivor count: 6 of 6
dose: 5.0 mg/kg/injection, schedule: Q04DX003 (ip), vehicle: saline with Tween-80
  survivor count: 6 of 6
dose: 10.0 mg/kg/injection, schedule: Q04DX002 (ip), vehicle: saline
  T/C: 131 % of control

## NC(N)=N/N=C/C=N/N=C(N)N
dose: 100.0 mg/kg/injection, schedule: Q04DX003 (ip), vehicle: saline
  survivor count: 3 of 6
dose: 200.0 mg/kg/injection, schedule: Q04DX003 (ip), vehicle: saline
  survivor count: 0 of 6 (2×)
dose: 400.0 mg/kg/injection, schedule: Q04DX003 (ip), vehicle: saline
  survivor count: 0 of 6 (2×)

## CC/C(=C(\CC)c1ccc(OCCN(CC)CC)cc1)c1ccc(OCCN(CC)CC)cc1
dose: 50.0 mg/kg/injection, schedule: Q01DX010 (ip), vehicle: carboxymethylcellulose (CMC)
  survivor count: 0 of 6
dose: 100.0 mg/kg/injection, schedule: Q01DX010 (ip), vehicle: carboxymethylcellulose (CMC)
  survivor count: 0 of 6

## COC(=O)C1C2(C)CCc3cc(OC)ccc3C2=CC(=O)C1(C)C(=O)OC (stereo not drawn)
dose: 200.0 mg/kg/injection, schedule: Q04DX003 (sc), vehicle: steroid suspending solution
  survivor count: 6 of 6

## Cc1c2ccccc2c(C)c2c1ccc1ccccc12
dose: 9.0 mg/kg/injection, schedule: Q01DX009 (ip), vehicle: saline with Tween-80
  T/C: 145 % of control

## O=C(C[n+]1ccccc1)N/N=C/c1ccc([N+](=O)[O-])s1
dose: 25.0 mg/kg/injection, schedule: Q01DX009 (ip), vehicle: water
  T/C: 125 % of control
dose: 50.0 mg/kg/injection, schedule: Q01DX009 (ip), vehicle: water
  survivor count: 2 of 6
dose: 100.0 mg/kg/injection, schedule: Q04DX003 (ip), vehicle: water
  survivor count: 4 of 6

## O=NN(CCBr)C(=O)Nc1ccccc1
dose: 3.0 mg/kg/injection, schedule: Q01DX009 (ip), vehicle: Klucel (hydroxypropylcellulose) (HPC)
  T/C: 125 % of control
dose: 4.5 mg/kg/injection, schedule: Q01DX009 (ip), vehicle: Klucel (hydroxypropylcellulose) (HPC)
  T/C: 145 % of control
dose: 7.0 mg/kg/injection, schedule: Q01DX009 (ip), vehicle: Klucel (hydroxypropylcellulose) (HPC)
  T/C: 137 % of control
dose: 50.0 mg/kg/injection, schedule: Q01DX009 (ip), vehicle: Klucel (hydroxypropylcellulose) (HPC)
  T/C: 140 % of control
dose: 100.0 mg/kg/injection, schedule: Q01DX009 (ip), vehicle: Klucel (hydroxypropylcellulose) (HPC)
  survivor count: 6 of 6
dose: 100.0 mg/kg/injection, schedule: Q04DX003 (ip), vehicle: Klucel (hydroxypropylcellulose) (HPC)
  T/C: 140 % of control
dose: 150.0 mg/kg/injection, schedule: Q04DX003 (ip), vehicle: Klucel (hydroxypropylcellulose) (HPC)
  survivor count: 6 of 6
[1]
  survivor count: 6 of 6
dose: 400.0 mg/kg/injection, schedule: Q04DX003 (ip), vehicle: Klucel (hydroxypropylcellulose) (HPC)
  survivor count: 4 of 6

## CC(C)(C)OC(=O)NN=C1CCC(C(C)(C)C)CC1 (stereo not drawn)
dose: 200.0 mg/kg/injection, schedule: Q01DX009 (ip), vehicle: saline with Tween-80
  survivor count: 7 of 7
[2]
  survivor count: 0 of 7

## CC1(C)N=C(N)N=C(N)N1c1ccc(OCC(=O)N2CCOCC2)cc1
dose: 100.0 mg/kg/injection, schedule: Q01DX009 (ip), vehicle: saline
  T/C: 131 % of control

## COc1cc(O)c2c(c1)C(=O)c1cc3c(c(O)c1C2=O)C(OC1OC(C)C(O)C(O)C1OC)C(OC)C(C)(O)C3=O (stereo not drawn)
dose: 37.5 mg/kg/injection, schedule: Q01DX010 (ip), vehicle: saline
  T/C: 130 % of control
dose: 72.0 mg/kg/injection, schedule: Q01DX009 (ip), vehicle: Klucel (hydroxypropylcellulose) (HPC)
  T/C: 132 % of control
dose: 75.0 mg/kg/injection, schedule: Q01DX010 (ip), vehicle: saline
  T/C: 130 % of control
dose: 150.0 mg/kg/injection, schedule: Q01DX010 (ip), vehicle: carboxymethylcellulose (CMC)
  survivor count: 6 of 6
dose: 300.0 mg/kg/injection, schedule: Q01DX010 (ip), vehicle: carboxymethylcellulose (CMC)
  survivor count: 4 of 6
dose: 300.0 mg/kg/injection, schedule: Q01DX010 (ip), vehicle: saline
  survivor count: 2 of 6 and 3 of 6

## C=C(C)c1cc2c(cc1O)OCC2C (stereo not drawn)
dose: 75.0 mg/kg/injection, schedule: Q01DX009 (ip), vehicle: Klucel (hydroxypropylcellulose) (HPC)
  survivor count: 6 of 6
dose: 150.0 mg/kg/injection, schedule: Q01DX009 (ip), vehicle: Klucel (hydroxypropylcellulose) (HPC)
  survivor count: 6 of 6
[1]
  survivor count: 6 of 6

## CCc1c(-c2ccccc2)[nH]c2ccccc12
[2]
  survivor count: 0 of 6

## O=NN(CCCl)C(=O)NC1CCC(=O)NC1=O (stereo not drawn)
dose: 13.5 mg/kg/injection, schedule: Q04DX003 (ip), vehicle: gum acacia
  T/C: 145 % of control
dose: 100.0 mg/kg/injection, schedule: Q04DX003 (ip), vehicle: saline with Tween-80
  survivor count: 5 of 6
dose: 200.0 mg/kg/injection, schedule: Q04DX003 (ip), vehicle: saline with Tween-80
  survivor count: 5 of 6
dose: 400.0 mg/kg/injection, schedule: Q04DX003 (ip), vehicle: saline with Tween-80
  survivor count: 0 of 6

## S=c1[nH]nc(Nc2ccccc2Cl)s1
[2]
  survivor count: 0 of 6

## CN=c1ccc2nc3ccc(N)cc3sc-2c1
dose: 100.0 mg/kg/injection, schedule: Q01DX005 (ip), vehicle: saline with Tween-80
  survivor count: 1 of 5
dose: 200.0 mg/kg/injection, schedule: Q01DX005 (ip), vehicle: saline with Tween-80
  survivor count: 0 of 5

## CCOC(=O)C(Cc1ccc(OC)c(OC)c1)C(Cc1ccc(OC)c(OC)c1)C(=O)OCC (stereo not drawn)
[2]
  survivor count: 5 of 6
